Results from article PMC12155470, “Novel Tetraene Macrodiolides Are Effective Inducers of Mitochondrial Apoptosis in Jurkat Cells” (International Journal of Molecular Sciences, 2025).

The compounds below were run on HL60 (assay: In vitro cytotoxic activity, 7-AAD flow cytometry, HL60). Conditions: CC50 fibroblasts / CC50 HL60.
Format: cell-based, Human
Excerpt: (§1) The investigation focused on the assessment of the synthesized compounds’ toxicities, utilizing a panel of six diverse cell lines. The selection of cells was based on the specific features of their metabolism, namely, Jurkat, K562, U937, and HL60 cells are suspension cultures of oncohematologic origin, and HEK293 is a conditionally normal line transformed by adenovirus and often used as control cells along with fibroblasts. The normal fibroblast line (Wi-38) utilized in the experiment was diploid and was obtained from the lung tissue of an aborted fetus. The total cytotoxic activity of 16 compounds was studied using flow cytometry.
(§2) Human cancer cell lines, including Jurkat, K562, U937, HL60, and fibroblasts (Wi-38), were obtained from the European Authentic Cell Culture Collection and further cultured according to established standard protocols using sterile methods. The cells were cultivated in RPMI 1640 (for Jurkat and K562) and DMEM (for Wi-38 and HEK293) media (Gibco, Billings, MT, USA), with the addition of […] glutamine, 10% FBS (Sigma, Kanagawa, Japan), and 100 U/mL penicillin–streptomycin (Sigma). All cell types were cultivated in a humidified atmosphere containing 5% CO₂ at a temperature of 37 °C. Subculturing was performed at two- to three-day intervals. The cells were subsequently seeded into 24-well plates at a density of 5 × 10^4 cells per well and incubated overnight. Subsequent subculturing was then performed at two-day intervals, with a seeding density of 1 × 10^5 cells per 24-well plate, using RPMI medium with 10% FBS [49].
(§3) The dissolution of the compounds tested was initially performed in dimethyl sulfoxide (DMSO) with an initial solution of 100 mM in 10% DMSO. Subsequently, the solution was diluted in a complete culture medium, namely, Dulbecco’s medium, modified Eagle’s medium (DMEM), or Roswell Park Memorial Institute medium (RPMI). Substances were added at concentrations of 10, 1, 100, 10, 1, and 0.1 μM on the day after seeding and incubated for 24 h. Following this, the cells were washed with a phosphate-buffered saline (PBS) solution and stained with 7AAD dye, as per the manufacturer’s protocol for flow cytometry. The CC50 value, which characterizes the parameters of toxicity (i.e., the concentration of the compound required for 50% inhibition of cell viability in vitro), was calculated. logC versus % inhibition was plotted, and statistical data processing was performed using Excel and GraphPad Prism v.8.0.2 (San Diego, CA, USA, 2019). The data obtained from three independent experiments were expressed as the mean of three measurements for each concentration, with the standard deviation indicated as well. These values were then relative to the control values (0.1% DMSO), which were taken as 100%.
(§4) 7-AAD (7-aminoactinomycin D) dye (eBioscience™, San Diego, CA, USA) was used to assess cell viability. Following incubation with the test compounds, the cells were harvested, washed with a phosphate–salt buffer (PBS), and subjected to centrifugation at 400× g for five minutes. The cell sediment was resuspended in 200 μL of staining buffer for flow cytometry (PBS without calcium and magnesium, 2.5% FBS) and stained with a 1 mM 7-AAD dye solution for 15 min in the dark at room temperature. Subsequently, all samples, including experimental and control groups, were analyzed using a BD FACSAria™ III Cell Sorter flow cytometer (Milpitas, CA, USA).

SMILES	SI (HL60)
O=C1CCCC/C=C\CC/C=C\CCCCC(=O)OCCCC/C=C\CC/C=C\CCCCO1 [Compound 7c]	3.8
O=C1CCCC/C=C\CC/C=C\CCCCC(=O)OCCC/C=C\CC/C=C\CCCO1 [Compound 6c]	2.9
O=C1CCC/C=C\CC/C=C\CCCC(=O)OCCC/C=C\CC/C=C\CCCO1 [Compound 6b]	3.0
O=C1CCCCC/C=C\CC/C=C\CCCCCC(=O)OCCCCCC/C=C\CC/C=C\CCCCCCO1 [Compound 9d]	4.7
O=C1CCCCC/C=C\CC/C=C\CCCCCC(=O)OCCC/C=C\CC/C=C\CCCO1 [Compound 6d]	3.7
O=C1CCCCC/C=C\CC/C=C\CCCCCC(=O)OCCCC/C=C\CC/C=C\CCCCO1 [Compound 7d]	4.1
O=C1CCCC/C=C\CC/C=C\CCCCC(=O)OCCCCCC/C=C\CC/C=C\CCCCCCO1 [Compound 9c]	4.6
O=C1CCC/C=C\CC/C=C\CCCC(=O)OCCCC/C=C\CC/C=C\CCCCO1 [Compound 7b]	3.4
O=C1CCCCC/C=C\CC/C=C\CCCCCC(=O)OCCCCC/C=C\CC/C=C\CCCCCO1 [Compound 8d]	5.7
O=C1CC/C=C\CC/C=C\CCC(=O)OCCC/C=C\CC/C=C\CCCO1 [Compound 6a]	3.8
O=C1CCC/C=C\CC/C=C\CCCC(=O)OCCCCC/C=C\CC/C=C\CCCCCO1 [Compound 8b]	3.5
O=C1CCC/C=C\CC/C=C\CCCC(=O)OCCCCCC/C=C\CC/C=C\CCCCCCO1 [Compound 9b]	3.9
O=C1CC/C=C\CC/C=C\CCC(=O)OCCCC/C=C\CC/C=C\CCCCO1 [Compound 7a]	3.2
O=C1CCCC/C=C\CC/C=C\CCCCC(=O)OCCCCC/C=C\CC/C=C\CCCCCO1 [Compound 8c]	4.4
O=C1CC/C=C\CC/C=C\CCC(=O)OCCCCCC/C=C\CC/C=C\CCCCCCO1 [Compound 9a]	3.9
O=C1CC/C=C\CC/C=C\CCC(=O)OCCCCC/C=C\CC/C=C\CCCCCO1 [Compound 8a]	3.9

The compounds below were run on U937 (assay: In vitro cytotoxic activity, 7-AAD flow cytometry, U937). Conditions: CC50 fibroblasts / CC50 U937.
Format: cell-based, Human
Excerpt: as §1, §2, §3, §4

SMILES	SI (U937)
O=C1CCCC/C=C\CC/C=C\CCCCC(=O)OCCCC/C=C\CC/C=C\CCCCO1 [Compound 7c]	3.4
O=C1CCCC/C=C\CC/C=C\CCCCC(=O)OCCC/C=C\CC/C=C\CCCO1 [Compound 6c]	3.0
O=C1CCC/C=C\CC/C=C\CCCC(=O)OCCC/C=C\CC/C=C\CCCO1 [Compound 6b]	2.7
O=C1CCCCC/C=C\CC/C=C\CCCCCC(=O)OCCCCCC/C=C\CC/C=C\CCCCCCO1 [Compound 9d]	5.2
O=C1CCCCC/C=C\CC/C=C\CCCCCC(=O)OCCC/C=C\CC/C=C\CCCO1 [Compound 6d]	3.9
O=C1CCCCC/C=C\CC/C=C\CCCCCC(=O)OCCCC/C=C\CC/C=C\CCCCO1 [Compound 7d]	3.9
O=C1CCCC/C=C\CC/C=C\CCCCC(=O)OCCCCCC/C=C\CC/C=C\CCCCCCO1 [Compound 9c]	4.5
O=C1CCC/C=C\CC/C=C\CCCC(=O)OCCCC/C=C\CC/C=C\CCCCO1 [Compound 7b]	3.5
O=C1CCCCC/C=C\CC/C=C\CCCCCC(=O)OCCCCC/C=C\CC/C=C\CCCCCO1 [Compound 8d]	5.2
O=C1CC/C=C\CC/C=C\CCC(=O)OCCC/C=C\CC/C=C\CCCO1 [Compound 6a]	3.3
O=C1CCC/C=C\CC/C=C\CCCC(=O)OCCCCC/C=C\CC/C=C\CCCCCO1 [Compound 8b]	3.7
O=C1CCC/C=C\CC/C=C\CCCC(=O)OCCCCCC/C=C\CC/C=C\CCCCCCO1 [Compound 9b]	3.9
O=C1CC/C=C\CC/C=C\CCC(=O)OCCCC/C=C\CC/C=C\CCCCO1 [Compound 7a]	3.0
O=C1CCCC/C=C\CC/C=C\CCCCC(=O)OCCCCC/C=C\CC/C=C\CCCCCO1 [Compound 8c]	4.1
O=C1CC/C=C\CC/C=C\CCC(=O)OCCCCCC/C=C\CC/C=C\CCCCCCO1 [Compound 9a]	4.0
O=C1CC/C=C\CC/C=C\CCC(=O)OCCCCC/C=C\CC/C=C\CCCCCO1 [Compound 8a]	3.6

The compounds below were run on Hek293 (assay: In vitro cytotoxic activity, 7-AAD flow cytometry, Hek293). Conditions: CC50 fibroblasts / CC50 Hek293.
Format: cell-based
Excerpt: as §1, §2, §3, §4

SMILES	SI (Hek293)
O=C1CCCC/C=C\CC/C=C\CCCCC(=O)OCCCC/C=C\CC/C=C\CCCCO1 [Compound 7c]	1.2
O=C1CCCC/C=C\CC/C=C\CCCCC(=O)OCCC/C=C\CC/C=C\CCCO1 [Compound 6c]	1.3
O=C1CCC/C=C\CC/C=C\CCCC(=O)OCCC/C=C\CC/C=C\CCCO1 [Compound 6b]	1.3
O=C1CCCCC/C=C\CC/C=C\CCCCCC(=O)OCCCCCC/C=C\CC/C=C\CCCCCCO1 [Compound 9d]	1.5
O=C1CCCCC/C=C\CC/C=C\CCCCCC(=O)OCCC/C=C\CC/C=C\CCCO1 [Compound 6d]	1.3
O=C1CCCCC/C=C\CC/C=C\CCCCCC(=O)OCCCC/C=C\CC/C=C\CCCCO1 [Compound 7d]	1.2
O=C1CCCC/C=C\CC/C=C\CCCCC(=O)OCCCCCC/C=C\CC/C=C\CCCCCCO1 [Compound 9c]	1.2
O=C1CCC/C=C\CC/C=C\CCCC(=O)OCCCC/C=C\CC/C=C\CCCCO1 [Compound 7b]	1.1
O=C1CCCCC/C=C\CC/C=C\CCCCCC(=O)OCCCCC/C=C\CC/C=C\CCCCCO1 [Compound 8d]	1.2
O=C1CC/C=C\CC/C=C\CCC(=O)OCCC/C=C\CC/C=C\CCCO1 [Compound 6a]	1.4
O=C1CCC/C=C\CC/C=C\CCCC(=O)OCCCCC/C=C\CC/C=C\CCCCCO1 [Compound 8b]	1.3
O=C1CCC/C=C\CC/C=C\CCCC(=O)OCCCCCC/C=C\CC/C=C\CCCCCCO1 [Compound 9b]	1.1
O=C1CC/C=C\CC/C=C\CCC(=O)OCCCC/C=C\CC/C=C\CCCCO1 [Compound 7a]	1.3
O=C1CCCC/C=C\CC/C=C\CCCCC(=O)OCCCCC/C=C\CC/C=C\CCCCCO1 [Compound 8c]	1.3
O=C1CC/C=C\CC/C=C\CCC(=O)OCCCCCC/C=C\CC/C=C\CCCCCCO1 [Compound 9a]	1.4
O=C1CC/C=C\CC/C=C\CCC(=O)OCCCCC/C=C\CC/C=C\CCCCCO1 [Compound 8a]	1.3

Each compound was assayed on K562 (assay: In vitro cytotoxic activity, 7-AAD flow cytometry, K562). Conditions: CC50 fibroblasts / CC50 K562.
Format: cell-based, Human
Excerpt: as §1, §2, §3, §4

SMILES	SI (K562)
O=C1CCCC/C=C\CC/C=C\CCCCC(=O)OCCCC/C=C\CC/C=C\CCCCO1 [Compound 7c]	3.5
O=C1CCCC/C=C\CC/C=C\CCCCC(=O)OCCC/C=C\CC/C=C\CCCO1 [Compound 6c]	2.9
O=C1CCC/C=C\CC/C=C\CCCC(=O)OCCC/C=C\CC/C=C\CCCO1 [Compound 6b]	2.8
O=C1CCCCC/C=C\CC/C=C\CCCCCC(=O)OCCCCCC/C=C\CC/C=C\CCCCCCO1 [Compound 9d]	5.8
O=C1CCCCC/C=C\CC/C=C\CCCCCC(=O)OCCC/C=C\CC/C=C\CCCO1 [Compound 6d]	3.5
O=C1CCCCC/C=C\CC/C=C\CCCCCC(=O)OCCCC/C=C\CC/C=C\CCCCO1 [Compound 7d]	3.5
O=C1CCCC/C=C\CC/C=C\CCCCC(=O)OCCCCCC/C=C\CC/C=C\CCCCCCO1 [Compound 9c]	4.0
O=C1CCC/C=C\CC/C=C\CCCC(=O)OCCCC/C=C\CC/C=C\CCCCO1 [Compound 7b]	3.4
O=C1CCCCC/C=C\CC/C=C\CCCCCC(=O)OCCCCC/C=C\CC/C=C\CCCCCO1 [Compound 8d]	4.1
O=C1CC/C=C\CC/C=C\CCC(=O)OCCC/C=C\CC/C=C\CCCO1 [Compound 6a]	3.0
O=C1CCC/C=C\CC/C=C\CCCC(=O)OCCCCC/C=C\CC/C=C\CCCCCO1 [Compound 8b]	3.5
O=C1CCC/C=C\CC/C=C\CCCC(=O)OCCCCCC/C=C\CC/C=C\CCCCCCO1 [Compound 9b]	3.5
O=C1CC/C=C\CC/C=C\CCC(=O)OCCCC/C=C\CC/C=C\CCCCO1 [Compound 7a]	2.8
O=C1CCCC/C=C\CC/C=C\CCCCC(=O)OCCCCC/C=C\CC/C=C\CCCCCO1 [Compound 8c]	3.8
O=C1CC/C=C\CC/C=C\CCC(=O)OCCCCCC/C=C\CC/C=C\CCCCCCO1 [Compound 9a]	3.9
O=C1CC/C=C\CC/C=C\CCC(=O)OCCCCC/C=C\CC/C=C\CCCCCO1 [Compound 8a]	3.8

The compounds below were run on Jurkat (assay: In vitro cytotoxic activity, 7-AAD flow cytometry, Jurkat). Conditions: CC50 fibroblasts / CC50 Jurkat.
Format: cell-based, Human
Excerpt: as §1, §2, §3, §4

SMILES	SI (Jurkat)
O=C1CCCC/C=C\CC/C=C\CCCCC(=O)OCCCC/C=C\CC/C=C\CCCCO1 [Compound 7c]	3.2
O=C1CCCC/C=C\CC/C=C\CCCCC(=O)OCCC/C=C\CC/C=C\CCCO1 [Compound 6c]	2.6
O=C1CCC/C=C\CC/C=C\CCCC(=O)OCCC/C=C\CC/C=C\CCCO1 [Compound 6b]	2.9
O=C1CCCCC/C=C\CC/C=C\CCCCCC(=O)OCCCCCC/C=C\CC/C=C\CCCCCCO1 [Compound 9d]	5.3
O=C1CCCCC/C=C\CC/C=C\CCCCCC(=O)OCCC/C=C\CC/C=C\CCCO1 [Compound 6d]	3.2
O=C1CCCCC/C=C\CC/C=C\CCCCCC(=O)OCCCC/C=C\CC/C=C\CCCCO1 [Compound 7d]	3.3
O=C1CCCC/C=C\CC/C=C\CCCCC(=O)OCCCCCC/C=C\CC/C=C\CCCCCCO1 [Compound 9c]	3.4
O=C1CCC/C=C\CC/C=C\CCCC(=O)OCCCC/C=C\CC/C=C\CCCCO1 [Compound 7b]	3.0
O=C1CCCCC/C=C\CC/C=C\CCCCCC(=O)OCCCCC/C=C\CC/C=C\CCCCCO1 [Compound 8d]	3.9
O=C1CC/C=C\CC/C=C\CCC(=O)OCCC/C=C\CC/C=C\CCCO1 [Compound 6a]	2.6
O=C1CCC/C=C\CC/C=C\CCCC(=O)OCCCCC/C=C\CC/C=C\CCCCCO1 [Compound 8b]	3.2
O=C1CCC/C=C\CC/C=C\CCCC(=O)OCCCCCC/C=C\CC/C=C\CCCCCCO1 [Compound 9b]	3.3
O=C1CC/C=C\CC/C=C\CCC(=O)OCCCC/C=C\CC/C=C\CCCCO1 [Compound 7a]	2.5
O=C1CCCC/C=C\CC/C=C\CCCCC(=O)OCCCCC/C=C\CC/C=C\CCCCCO1 [Compound 8c]	3.6
O=C1CC/C=C\CC/C=C\CCC(=O)OCCCCCC/C=C\CC/C=C\CCCCCCO1 [Compound 9a]	3.3
O=C1CC/C=C\CC/C=C\CCC(=O)OCCCCC/C=C\CC/C=C\CCCCCO1 [Compound 8a]	3.4
